Data as given in PubChem BioAssay AID504791 (Drosophila RNAi Screening Center, 2011)
Test: 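Genes whose knock-down strengthens or weakens small-RNA reporter silencing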 (primary screen). Cell system: Drosophila S2-derived reporter cells. Reagents: long dsRNA against Drosophila genes, about 150-250 ng dsRNA per well (siRNA assay); about 80-120 ng (miRNA assay). Time to read-out: about 5 days (siRNA assay); about 4 days (miRNA assay). Challenge: copper sulfate induction of reporters: 25 µM (siRNA assay); 200 mM stated (miRNA assay), 1-2 days before reading. Read-out: 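Dual luciferase assay: Renilla to firefly signal ratio in each well, scaled to the mean ratio of its plate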. Scale: siRNA reporter hit score: higher = 3 marks a strong hit with raised ratio; -3 a strong hit with lowered ratio. Call rule: 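First-pass picks had plate-scaled ratios over 1.5 for the siRNA assay, over 1.6 for the miRNA assay, or under 0.6; two distinct dsRNAs had to score alike on retest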.
The screen tested about 23,000 reagents; below is an unselected part of those that have a named target and a result. In the full data, 199 (0.86%) got an active call. 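Plate-scaled ratios behind the calls are not deposited; printed light signals are raw; many rows marked increased or decreased are still called inactive.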 The numbers tell different reagents against one gene apart. A plus sign joins genes that one reagent is predicted to hit.

gene	reagent	siRNA reporter hit score	stable siRNA reporter change	miRNA reporter change	stable assay Renilla, run 1 (luminescence)	stable assay firefly, run 1 (luminescence)	outcome
CG16978	1				6747	3.42e5	inactive
CG9577	1				2591	3.59e5	inactive
Myt1	1				4868	3.50e5	inactive
Drak	1				4963	3.06e5	inactive
Drak	2				3935	3.11e5	inactive
Ipk1	1				10654	1.10e6	inactive
Ipk1	2				6575	3.22e5	inactive
Ipk1	3				6600	3.46e5	inactive
Coq8	1				5339	4.70e5	inactive
Cyp9c1	1				16222	9.59e5	inactive
Ktch	1				5207	3.61e5	inactive
CG7025	1				8130	5.82e5	inactive
CG31953 (retired record) + gkt	1				15029	2.01e5	inactive
CG14230	1				8311	5.06e5	inactive
Elys	1				8983	3.73e5	inactive
CG3626	1				5795	3.33e5	inactive
CG14238	1				5787	4.09e5	inactive
CG6813	1				6679	3.31e5	inactive
Trx2	1				7495	3.81e5	inactive
CG34242	1				5372	4.56e5	inactive
SoxN	1				5363	3.65e5	inactive
SoxN	2				6340	4.08e5	inactive
Nle	1				7578	5.75e5	inactive
Vhl	1				5655	3.17e5	inactive
CG6729	1				9243	5.38e5	inactive
CG6729	2				3839	3.07e5	inactive
NetB	1				8275	4.51e5	inactive
GstE5	1				4952	2.38e5	inactive
CG31549	1				8777	3.85e5	inactive
otu	1				4956	2.88e5	inactive
CG31730	1				5524	3.30e5	inactive
Suv3	1				8411	4.09e5	inactive
Sf3b3	1		reporter ratio lowered past the hit cutoff	reporter ratio lowered past the hit cutoff	13040	8.76e5	active
Spc105R	1			reporter ratio raised past the hit cutoff	7484	3.76e5	inactive
mld	1				4111	3.00e5	inactive
mld	2				6883	3.34e5	inactive
mld	3				8479	4.23e5	inactive
Tsp42Eb + CG30160	1				6691	5.86e5	inactive
Tsp42Eb + CG30160	2				6310	3.51e5	inactive
Nepl6	1				4231	4.08e5	inactive
Pisd	1				8086	3.38e5	inactive
RpS26	1			reporter ratio lowered past the hit cutoff	6695	5.24e5	active
Idh3a	1				5139	3.62e5	inactive
smg	1				8442	4.07e5	inactive
HPS4	1				7232	3.37e5	inactive
CG42697	1				5287	4.12e5	inactive
CG14074	1				8521	4.60e5	inactive
Rtnl2	1				6963	4.64e5	inactive
Rtnl2	2				8142	4.43e5	inactive
Vsx2	1				3232	3.42e5	inactive
Vsx2	2			reporter ratio raised past the hit cutoff	4931	2.51e5	inactive
Vsx2	3				5195	4.21e5	inactive
Vsx2	4				4503	3.06e5	inactive
Vsx2	5				3944	2.73e5	inactive
Vsx2	6				3347	3.02e5	inactive
CG7191	1				8370	6.35e5	inactive
kappaB-Ras + CG30503	1				6650	3.40e5	inactive
kappaB-Ras + CG30503	2				5230	2.92e5	inactive
Prosbeta4	1	-3	reporter ratio raised past the hit cutoff		9306	2.83e5	active
Wsck	1				6084	3.80e5	inactive
CG13218	1				6307	4.58e5	inactive
CG18666	1				6399	3.64e5	inactive
Ltn1	1				10130	4.76e5	inactive
Ltn1	2				6388	3.87e5	inactive
Tsp26A	1				8198	4.24e5	inactive
Nlg1	1				5786	3.46e5	inactive
Nlg1	2				6022	3.51e5	inactive
Nlg1	3				6502	4.76e5	inactive
Nlg1	4				6424	3.26e5	inactive
Gale	1				10338	4.81e5	inactive
mbt	1				4763	3.34e5	inactive
mbt	2				4527	3.47e5	inactive
Rnf146	1				7402	5.05e5	inactive
Gr21a	1				9054	4.11e5	inactive
CG15414	1				9158	5.73e5	inactive
CG15414	2				9107	6.84e5	inactive
Pex2	1				8279	5.00e5	inactive
CG18744	1				6983	3.98e5	inactive
CG32264	1	3			3891	2.76e5	inactive
CG32264	2				5691	2.95e5	inactive
CG32264	3				7499	3.74e5	inactive
CG32264	4				4231	3.87e5	inactive
CG32264	5				4926	2.02e5	inactive
AhcyL1	1				6482	4.29e5	inactive
dj-1beta	1				5927	3.77e5	inactive
CG40005 (retired record) + cta	1				5358	4.25e5	inactive
Gs2	1				5368	4.68e5	inactive
CG34309	1				6654	4.25e5	inactive
Snx27	1				5954	3.47e5	inactive
Snx27	2				5407	4.10e5	inactive
Snx27	3				5711	3.48e5	inactive
CG7573	1				6067	3.13e5	inactive
Imp	1				5059	4.03e5	inactive
Imp	2				6635	3.63e5	inactive
ATPsyngamma	1				5096	3.21e5	inactive
Cmpk	1				6387	3.73e5	inactive
Ctns	1		reporter ratio raised past the hit cutoff		4960	1.29e5	active
Ctu2	1				2.92e5	1.31e6	inactive
CG5062	1				5943	2.55e5	inactive
Gr64d + Gr64e	1				5283	4.79e5	inactive
HSPC300	1				4072	4.03e5	inactive
pcx	1				6690	4.35e5	inactive
pcx	2				6822	4.96e5	inactive
pcx	3				7130	4.58e5	inactive
pcx	4				6019	4.17e5	inactive
pcx	5				7056	4.22e5	inactive
pcx	6				6638	3.80e5	inactive

Hits (from the list above):
gene	reagent	siRNA reporter hit score	stable siRNA reporter change	miRNA reporter change	stable assay Renilla, run 1 (luminescence)	stable assay firefly, run 1 (luminescence)	outcome
Sf3b3	1		reporter ratio lowered past the hit cutoff	reporter ratio lowered past the hit cutoff	13040	8.76e5	active
RpS26	1			reporter ratio lowered past the hit cutoff	6695	5.24e5	active
Prosbeta4	1	-3	reporter ratio raised past the hit cutoff		9306	2.83e5	active
Ctns	1		reporter ratio raised past the hit cutoff		4960	1.29e5	active
